In publication PMC7615741:
Read-outs that look alike come from different tables or passages of the source. Results are given in words; binding and its absence hold for the method and conditions named. Binding seen in cells or lysates may run through a third protein. Here binding means that the protein was enriched with, or labelled near, the bait; the list need not be complete. Blank lines part the entries; values can stand above or below the molecule they belong to.

Columns and labels:
[1] = target: T1, AtEH1-linker-TurboID (A. thaliana) (UniProt Q9LM78); experiment: proximity labelling; TurboID with AtEH1-linker-TurboID as bait in PSB-D A. thaliana cell suspension cultures; mass spectrometry; enrichment against a large set of TurboID experiments with unrelated baits
T1 sequence: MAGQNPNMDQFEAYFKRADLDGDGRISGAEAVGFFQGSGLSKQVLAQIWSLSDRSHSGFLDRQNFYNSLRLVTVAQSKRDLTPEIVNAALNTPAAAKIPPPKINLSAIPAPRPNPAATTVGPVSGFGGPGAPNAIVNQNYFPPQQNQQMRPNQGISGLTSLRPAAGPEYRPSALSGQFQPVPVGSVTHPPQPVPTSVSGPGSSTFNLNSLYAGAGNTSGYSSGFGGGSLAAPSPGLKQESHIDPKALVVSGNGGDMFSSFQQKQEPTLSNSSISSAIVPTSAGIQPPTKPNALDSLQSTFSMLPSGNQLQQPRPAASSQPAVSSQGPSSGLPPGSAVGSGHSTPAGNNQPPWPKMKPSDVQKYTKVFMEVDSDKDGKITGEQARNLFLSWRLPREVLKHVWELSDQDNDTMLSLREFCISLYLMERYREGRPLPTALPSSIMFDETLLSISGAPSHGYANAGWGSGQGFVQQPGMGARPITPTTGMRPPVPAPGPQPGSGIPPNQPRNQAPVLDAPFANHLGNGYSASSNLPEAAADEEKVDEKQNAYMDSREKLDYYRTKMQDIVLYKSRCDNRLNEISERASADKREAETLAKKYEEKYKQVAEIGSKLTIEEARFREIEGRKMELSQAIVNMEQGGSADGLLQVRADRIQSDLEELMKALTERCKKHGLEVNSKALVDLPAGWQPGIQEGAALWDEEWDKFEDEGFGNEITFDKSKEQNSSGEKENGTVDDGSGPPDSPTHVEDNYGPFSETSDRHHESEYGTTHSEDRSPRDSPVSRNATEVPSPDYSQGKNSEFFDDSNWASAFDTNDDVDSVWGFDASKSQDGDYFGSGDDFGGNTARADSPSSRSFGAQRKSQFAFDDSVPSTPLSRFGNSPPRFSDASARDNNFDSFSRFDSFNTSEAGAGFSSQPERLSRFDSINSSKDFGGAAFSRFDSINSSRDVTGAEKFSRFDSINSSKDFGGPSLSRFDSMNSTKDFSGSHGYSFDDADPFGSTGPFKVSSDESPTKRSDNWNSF

[2] = target: T1, AtEH1-linker-TurboID (A. thaliana); experiment: as above; remark: listed apart in the source

binding [1]: binds
Molecule: Auxilin-like2

binding [2]: binds
B1: TOM-1LIKE (TOL) protein TOL6 (protein, UniProt O80910 1-671)
chain: MASSSASATVAVDKATSDLLLGPDWTTNMEICDSVNSLHWQAKDVVKAVKKRLQHKSSRVQLLALTLLETLVKNCGDYLHHQVAEKNILGEMVKIVKKKADMQVRDKILVMVDSWQQAFGGPEGKYPQYYWAYDELRRSGVEFPRRSPDASPIITPPVSHPPLRQPQGGYGVPPAGYGVHQAGYGVPQAGYGIPQAGYGVPQAGYGIPQVGYGMPSGSSRRLDEAMATEVEGLSLSSIESMRDVMDLLGDMLQAVDPSDREAVKDEVIVDLVERCRSNQKKLMQMLTSTGDDELLGRGLDLNDSLQILLAKHDAIASGSPLPVQASGSPLSVQASKPADSSPKSSEAKDSSSIAGSSSPIPATVSTGKSPIDEEYEEEEDEFAQLARRHSKPPASVTTDPTSLESHNAASNALALALPDPPPPVNTTKEQDMIDLLSITLCTPSTPPAPSSQPSPPPPAGSDQNTHIYPQPQPRFDSYVAPWAQQQQPQQPQAQQGYSQHQQHQQQQGYSQPQHSQQQQGYSQLQQPQPQQGYSQSQPQAQVQMQPSTRPQNPYEYPPPPWASTSANAYYTPRANASASYTDTSALAGRSLQQSNSFPTRAGDPQATSTASNSGVSVGQKPFVPSYRLFEDLDVFGSADGKHNKPANSSNGSQNLSGSQTQQSMIGGRKMI

binding [2]: binds
B2: Med15a (protein, UniProt F4I171 1-1335)
chain: MDNNNWRPSLPNGEPAMDTGDWRTQLPPDSRQKIVNKIMETLKKHLPFSGPEGINELRRIAARFEEKIFSGALNQTDYLRKISMKMLTMETKSQNAAGSSAAIPAANNGTSIDSIPTNQGQLLPGSLSTNQSQAPQPLLSQTMQNNTASGMTGSTALPSSMPPVSSITNNNTTSVVNQNANMQNVAGMLQDSSGQHGLSSNMFSGPQRQMLGRPHAMSSQQQQQPYLYQQQLQQQLLKQNFQSGNVPNPNSLLPSHIQQQQQNVLQPNQLHSSQQPGVPTSATQPSTVNSAPLQGLHTNQQSSPQLSSQQTTQSMLRQHQSSMLRQHPQSQQASGIHQQQSSLPQQSISPLQQQPTQLMRQQAANSSGIQQKQMMGQHVVGDMQQQHQQRLLNQQNNVMNIQQQQSQQQPLQQPQQQQKQQPPAQQQLMSQQNSLQATHQNPLGTQSNVAGLQQPQQQMLNSQVGNSSLQNNQHSVHMLSQPTVGLQRTHQAGHGLYSSQGQQSQNQPSQQQMMPQLQSHHQQLGLQQQPNLLQQDVQQRLQASGQVTGSLLPPQNVVDQQRQLYQSQRTLPEMPSSSLDSTAQTESANGGDWQEEVYQKIKSMKETYLPDLNEIYQRVAAKLQQDSMPQQQRSDQLEKLRQFKTMLERMIQFLSVSKSNIMPALKDKVAYYEKQIIGFLNMHRPRKPVQQGQLPQSQMQPMQQPQSQTVQDQSHDNQTNPQMQSMSMQGAGPRAQQSSMTNMQSNVLSSRPGVSAPQQNIPSSIPASSLESGQGNTLNNGQQVAMGSMQQNTSQLVNNSSASAQSGLSTLQSNVNQPQLSSSLLQHQHLKQQQDQQMQLKQQFQQRQMQQQQLQARQQQQQQQLQARQQAAQLQQMNDMNDLTSRQGMNVSRGMFQQHSMQGQRANYPLQQLKPGAVSSPQLLQGASPQMSQHLSPQVDQKNTVNKMGTPLQPANSPFVVPSPSSTPLAPSPMQVDSEKPGSSSLSMGNIARQQATGMQGVVQSLAIGTPGISASPLLQEFTSPDGNILNSSTITSGKPSATELPIERLIRAVKSISPQALSSAVSDIGSVVSMVDRIAGSAPGNGSRASVGEDLVAMTKCRLQARNFMTQEGMMATKKMKRHTTAMPLSVASLGGSVGDNYKQFAGSETSDLESTATSDGKKARTETEHALLEEIKEINQRLIDTVVEISDDEDAADPSEVAISSIGCEGTTVRFSFIAVSLSPALKAHLSSTQMSPIQPLRLLVPCSYPNGSPSLLDKLPVETSKENEDLSSKAMARFNILLRSLSQPMSLKDIAKTWDACARAVICEYAQQFGGGTFSSKYGTWEKYVAAS

binding [2]: binds
B3: TOM-1LIKE (TOL) protein TOL9 (protein, UniProt Q8L860 1-675)
chain: MVNAMVERATSEMLIGPDWAMNLEICDMLNSDPAQAKDVVKGIKKRIGSRNPKAQLLALTLLETIVKNCGDMVHMHVAEKGVIHEMVRIVKKKPDFHVKEKILVLIDTWQEAFGGPRARYPQYYAGYQELLRAGAVFPQRSERSAPVFTPPQTQPLTSYPPNLRNAGPGNDVPEPSAEPEFPTLSLSEIQNAKGIMDVLAEMLSALEPGNKEDLKQEVMVDLVEQCRTYKQRVVHLVNSTSDESLLCQGLALNDDLQRVLTNYEAIASGLPGTSSQIEKPKSETGKSLVDVDGPLIDTGDSSNQANGATSSSGNGVLNQLALPAPPVTNGSANSKIDLLSGDDLALVPVGPPQPASPVASDQNALALIDMFSDNTNNPSPATAPSGNPAQNIPLNPQGHQQPNSQAGEAGLQQSNGFAPQVGYSQFEQPSYGQGVSSPWSSQPAQQPVQPSYGAQDSTAFPPPPWEAQLQDYSPSAESGSPFSPGMHPTQTAFTHAQPVNNNNPYPQIPQTGPPVNNNSPYAQMPQTGQAVANISPYPQIPQNGVYMPNQPNQALGSGYQPQQQQQQQMMMAQYYAQQQQLQQQQQQQAYGNQMGGYGYGYNQQQQGSSPYLDQQMYGLSMRDQTSHQVASSSSTTSYLPPMKPKNKPEDKLFGDLVDISKFKPTKPTSGRAGTM

binding [2]: binds
B4: Auxilin-like1 (protein, UniProt Q9SU08 1-904)
chain: MDDFTGLLARDFGLKPQGKSAPMASQSNSSAADFNTFASSYSFATAAGKKSDSLPVFDDPGRDGDDLLFKDVFSGPPPPKYGSSSGDSRSPSAPAFDYDAMFKEPKSKSASSMPVYDKPVYDDEDVFESIPELKIPSTSSQSARFENVFSSISSSPTKHRKQNSSPFDDLMGNNLGKKGADSDREEKGSSIFDDLIPGFGRTSSPPSKRTTSETTNQSEKAPYRTAETSSNVEEDPFVVLEESESTPREPSRTDPLDDIGKFNSRKTDHSSVHGGVFVDIDPLDNLGKPGPDMNSKGKSHLRPPGNISGSQSPPVESPGSYHSKKVSFEDFLEPHNMSTPPPTNSNGSFESSDDVWLTVSEIPLFTQPTSAPPPTRPPPPRPTRPIKKKVNEPSIPTSAYHSHVPSSGRASVNSPTASQMDELDDFSIGRNQTAANGYPDPSSGEDSDVFSTAAASAAAMKDAMDKAEAKFRHAKERREKENLKASRSREGDHTENYDSRERELREKQVRLDRERAEREAEMEKAQEREKEEREREQKRIERERERLVARQAVERATREARERAATEAHAKVQRAAVGKATDARERAERAAVQRAHAEARERAAAGARDKAAKAAAEAREKAEKAAAEAKERANAEAREKETRVRAERAAVERAAAEARGRAAAQAKAKQQQENTNDLDSFFSSISRPNSAPRQRTNPLDPFQDSWNKGGSFESSRESLRVPPGQPENLRKTSSVTNIVDDLSSIFGASASQSGGFQDVDGETEERRRARLERHQRTQERAAKALAEKNERDLQVQREQVEKDRIGVTLDVEIKRWGAGKEGNLRALLSTLQYVLWPECGWQPVSLTDLITAASVKKVYRKATLCIHPDKVQQKGANLQQKYIAEKVFDMLKEAWNKFNSEELF
